Taken from: PubChem BioAssay AID1224830 (NIAID, 2016)

Screen: 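Host factors that control LPS-induced TNF expression in human macrophages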 (primary screen)
Cells: human THP-1 monocytic leukaemia cells, TNF dual-luciferase reporter clone, PMA-differentiated to macrophage-like cells
Reagents: siRNA pool against human genes, 50 nM
Time to read-out: LPS for 4 h, given about 3 days after siRNA transfection
Treatment: bacterial LPS (TLR4 ligand), 10 ng/ml
Read-out: 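Ratio of firefly to renilla light, scaled to the plate median and expressed as a robust z-score per replicate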
Direction: TNF reporter robust z-score: higher = stronger TNF reporter response to LPS
Hit rule: 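Each well counts as active if its z-score is over 2.8 or under -1.5; controls are left without a call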
In all, the deposit lists about 18,000 reagents; below is a part drawn at random. About 2,900 of them (16%) were called active. 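Calls are made per well; low scores hint the gene aids the LPS response, high scores that it dampens it.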 Repeated entries: four replicate wells of each siRNA pool.

SMAP2: TNF reporter robust z-score = 0.61; outcome = inactive
SMAP2: TNF reporter robust z-score = 0.35; outcome = inactive
SMAP2: TNF reporter robust z-score = -0.59; outcome = inactive
SMAP2: TNF reporter robust z-score = -1.04; outcome = inactive
NXPH3: TNF reporter robust z-score = -0.54; outcome = inactive
NXPH3: TNF reporter robust z-score = 0.97; outcome = inactive
NXPH3: TNF reporter robust z-score = -0.28; outcome = inactive
NXPH3: TNF reporter robust z-score = -1.08; outcome = inactive
TEX56P: TNF reporter robust z-score = -1.26; outcome = inactive
TEX56P: TNF reporter robust z-score = -0.67; outcome = inactive
TEX56P: TNF reporter robust z-score = -0.57; outcome = inactive
TEX56P: TNF reporter robust z-score = 0.48; outcome = inactive
BPY2B: TNF reporter robust z-score = -0.79; outcome = inactive
BPY2B: TNF reporter robust z-score = -0.56; outcome = inactive
BPY2B: TNF reporter robust z-score = -0.51; outcome = inactive
BPY2B: TNF reporter robust z-score = -0.4; outcome = inactive
ATP2A1: TNF reporter robust z-score = -1.62; outcome = active
ATP2A1: TNF reporter robust z-score = -0.94; outcome = inactive
ATP2A1: TNF reporter robust z-score = -1.31; outcome = inactive
CHD3: TNF reporter robust z-score = 1.43; outcome = inactive
CHD3: TNF reporter robust z-score = 4.7; outcome = active
CHD3: TNF reporter robust z-score = 2.18; outcome = inactive
CHD3: TNF reporter robust z-score = 4.1; outcome = active
FANCD2OS: TNF reporter robust z-score = -0.22; outcome = inactive
FANCD2OS: TNF reporter robust z-score = 0.05; outcome = inactive
FANCD2OS: TNF reporter robust z-score = 0.03; outcome = inactive
FANCD2OS: TNF reporter robust z-score = 0.6; outcome = inactive
MBP: TNF reporter robust z-score = -1.12; outcome = inactive
MBP: TNF reporter robust z-score = -1.26; outcome = inactive
MBP: TNF reporter robust z-score = -1.8; outcome = active
MBP: TNF reporter robust z-score = -1.91; outcome = active

Not a retest: an excerpt of the list.
BPY2B: TNF reporter robust z-score = -0.4; outcome = inactive
ATP2A1: TNF reporter robust z-score = -1.62; outcome = active
ATP2A1: TNF reporter robust z-score = -0.94; outcome = inactive
ATP2A1: TNF reporter robust z-score = -1.31; outcome = inactive
CHD3: TNF reporter robust z-score = 1.43; outcome = inactive

More entries follow:
TMEM67: TNF reporter robust z-score = -0.72; outcome = inactive
TMEM67: TNF reporter robust z-score = -0.5; outcome = inactive
TMEM67: TNF reporter robust z-score = 0.06; outcome = inactive
TMEM67: TNF reporter robust z-score = 0.34; outcome = inactive
TFIP11: TNF reporter robust z-score = -0.72; outcome = inactive
TFIP11: TNF reporter robust z-score = -0.74; outcome = inactive
TFIP11: TNF reporter robust z-score = -1.18; outcome = inactive
TFIP11: TNF reporter robust z-score = -0.9; outcome = inactive
GSTP1: TNF reporter robust z-score = -1.51; outcome = active
GSTP1: TNF reporter robust z-score = -1.14; outcome = inactive
GSTP1: TNF reporter robust z-score = -0.73; outcome = inactive
GSTP1: TNF reporter robust z-score = -1.12; outcome = inactive
SVBP: TNF reporter robust z-score = -0.01; outcome = inactive
SVBP: TNF reporter robust z-score = -1.33; outcome = inactive
SVBP: TNF reporter robust z-score = -0.03; outcome = inactive
SVBP: TNF reporter robust z-score = -0.88; outcome = inactive
